# Measured values: paper doi:10.1101/2025.07.22.666133
# The chains behind the UniProt entries cited, without tags or fusion partners. Where a name states a change or a piece, a line headed by the entry shows the natural chain unless it says otherwise.
# UniProt P02545: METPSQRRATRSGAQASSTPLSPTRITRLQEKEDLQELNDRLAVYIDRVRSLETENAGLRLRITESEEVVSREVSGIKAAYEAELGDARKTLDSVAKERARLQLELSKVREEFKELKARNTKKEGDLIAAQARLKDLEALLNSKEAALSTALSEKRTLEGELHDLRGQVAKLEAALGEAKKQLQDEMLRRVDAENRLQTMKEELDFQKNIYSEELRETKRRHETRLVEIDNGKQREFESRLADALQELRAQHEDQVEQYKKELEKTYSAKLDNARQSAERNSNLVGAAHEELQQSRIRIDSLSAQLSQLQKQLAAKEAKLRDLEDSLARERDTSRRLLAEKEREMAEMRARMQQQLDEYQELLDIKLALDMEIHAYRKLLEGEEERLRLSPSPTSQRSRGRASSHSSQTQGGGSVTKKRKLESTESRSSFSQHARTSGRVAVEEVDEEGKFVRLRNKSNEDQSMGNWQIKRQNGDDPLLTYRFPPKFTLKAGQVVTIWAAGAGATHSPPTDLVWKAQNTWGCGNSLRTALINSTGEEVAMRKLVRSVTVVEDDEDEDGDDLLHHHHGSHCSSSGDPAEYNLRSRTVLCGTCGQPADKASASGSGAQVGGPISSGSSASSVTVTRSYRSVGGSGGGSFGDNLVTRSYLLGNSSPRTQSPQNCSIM
# No constants are given. Whether binding was seen depends on the method and setting. In cells and extracts the contact can be indirect. A result given as binding can be weak or reduced; the word gives no strength.
# Biological target: FLAG-tagged full-length human lamin A (human) (UniProt P02545)
# Assay: co-IP
binder,measurement,value
"Filamin A-interacting protein 1-like (protein, UniProt Q6P6L0 1-1131) MRSRSSNAEGSAPKQIPRHSKFQDSIQDMKHRTHKKDPSCESEGVLPRPVSEKSHTGKGHHTEDLSRDDLLFLLSILEGELQARDEVIGILRAEKIDLALLEAQYGFVTPKKVLEALQRDAFQAKSAPWQEDIYEKPMNELDKVVEKHKESHRRILEQLLMVERSHRQTIMEMEEEKRKHKEYMKKSDEFINLLEQECERLKKLIDQETASQEKKEQEKEKRIKTLKEELTKLKSFALMVVDEQQRLTAQLALQRQKIQALTTSAKETQGKLALAEARAQEEEQKATRLEKELQTQTTEFHQNQDKIMAKLTNEDSQNRQLRQKLAALSRQIDELEETNRSLRKAEEELQDIKDKINKGEYGNSGIMDEVDELRKRVLDMEGKDEELIKMEEQCRDLNKRLEKETVQSKDFKLEVDKLSVRITALEKLEDALDKSKQECYSLKCNLEKEKMTTKQLSEELESLNARIKELEAIESRLEKTEITLKDDLTKLKTLTVMLVDERKTMSEKLKQTEDKLQSTTSQLQAEQNKVTTVTEKLIEETKRALKSKTDAEEKMYSVTKERDDLRNKLKAEEEKGHDLLSKVTILKNRLQSLEAIEKDFVKNKLNQDSSKSTAALHQENNKIKELSQEVENLKLKLKDMKAIEDDLMKTEDEYETLERRYANERDKAQFLSQELEHAKMELAKYKLAEKTESSHEQWLFRRLQEEEAKSGHLSREVDALKEKIHEYMATEDLICHLQGDHSLLQKKLNQQENRNRDLGREIENLTKELERYRHFSKSLRPSLNGRRISDPQVFSKEVQTEAADSEPPDYKSLIPLERAVINGQFYEENEDQDDDPNEEESVLSFRCSQSSSLPMNRKLWIPWMKSKEGHPQNGKIQTKSNGNFVQPGDLVLSHTPGQPLHIKVTPDHIQNTATLEITSPTTESPHSYTSTAVIPNCGTPKQRITILQNASITPIKSKSSTESLMNLEQSMSPVTMATFARAQTPESCGSVTPERTMSPIQVLAMTGSPSSPEQGCSPEPIEISAKHAIFRVSPDRQSSWQFQRSNSNSSSVITTEDNKIHIHLGSPYMQAVAGPMRPASPSAPLQDNRTQGLTNGALNKTTNKVTSSITITPTATPLPRQSQITVSNIYN",binding,binds
